# The supplement of paper PMC4604168 (melanoma cell lines)
# This is one part of the list. Single values are uncertain, as repeats are few or missing.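 Cells were imaged in 1,536-well plates, and nuclei stained with an antibody against cleaved PARP were counted against all DNA-stained nuclei to give the apoptosis fraction. Screening doses were chosen to leave most cells alive, and resting and induced cleaved-PARP levels differ strongly between cell lines.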
# Tested on: CBRC034 (line from a melanoma biopsy)
# Test: cleaved PARP positive nuclei fraction relative to DMSO control; melanoma cells; higher = more apoptosis
# Settings: library dose: low library concentration; 72 h
row,Structure (SMILES),cleaved PARP positive nuclei fraction [%]
1,"CN(NC(=O)CC(=O)NN(C)C(=S)c1ccccc1)C(=S)c1ccccc1 + CCCCCCCCCCCC1=C(O)C(=O)C=C(O)C1=O [Embelin] (first compound 0.006 µM, partner dose 1.2 µM)",58
2,"COc1ccc2c(c1)CCC1C2CCC2(C)C(NCCCCCCN3C(=O)C=CC3=O)CCC12 (stereo unspecified) + O=c1cc(-c2cccc3c2Sc2ccccc2S3)oc(N2CCOCC2)c1 [KU55933] (first compound 0.4 µM, partner dose 1 µM)",87
3,"COc1ccc2c(c1)CCC1C2CCC2(C)C(NCCCCCCN3C(=O)C=CC3=O)CCC12 (stereo unspecified) + Oc1nc(-c2ccc(C(F)(F)F)cc2)nc2c1CSCC2 [XAV939] (first compound 0.4 µM, partner dose 2 µM)",18.9
4,"O=C(O)c1ccc(-c2c[nH]c3ncc(-c4ccccc4)cc23)cc1C1CCCC1 + COc1ccc2c(c1)CCC1C2CCC2(C)C(NCCCCCCN3C(=O)C=CC3=O)CCC12 [U73122] (first compound 0.16 µM, partner dose 0.4 µM)",41.8
5,"CCc1ccc(CCOc2ccc(CC3SC(=O)NC3=O)cc2)nc1 (stereo unspecified) [pioglitazone] + Oc1nc(-c2ccc(C(F)(F)F)cc2)nc2c1CSCC2 [XAV939] (first compound 2 µM, partner dose 2 µM)",98.8
6,"COc1cc2c(Oc3ccc4[nH]c(C)cc4c3F)ncnc2cc1OCCCN1CCCC1 [cediranib] + COc1cc2ncnc(Nc3ccc(Oc4ccccc4)cc3)c2cc1OC [SrcI1] (first compound 0.4 µM, partner dose 2 µM)",156
7,"N#Cc1c(O)c2c(-c3ccc(-c4ccccc4O)cc3)csc2[nH]c1=O + COc1cc2ncnc(Nc3ccc(Oc4ccccc4)cc3)c2cc1OC [SrcI1] (first compound 2 µM, partner dose 2 µM)",81.3
8,"CN(NC(=O)CC(=O)NN(C)C(=S)c1ccccc1)C(=S)c1ccccc1 + CC(C)CCN1c2nc(Nc3cc(F)c(O)c(F)c3)ncc2N(C)C(=O)C1C [BID1870] (first compound 0.006 µM, partner dose 0.2 µM)",716
9,"CCc1ccc(CCOc2ccc(CC3SC(=O)NC3=O)cc2)nc1 (stereo unspecified) [pioglitazone] + N#Cc1c(O)c2c(-c3ccc(-c4ccccc4O)cc3)csc2[nH]c1=O [A769662] (first compound 2 µM, partner dose 2 µM)",141
10,"Oc1nc(-c2ccc(C(F)(F)F)cc2)nc2c1CSCC2 + CCCCCCCCCCCC1=C(O)C(=O)C=C(O)C1=O [Embelin] (first compound 2 µM, partner dose 1.2 µM)",80.8
11,"CCN(CC)CCCCNc1ncc2cc(-c3cc(OC)cc(OC)c3)c(NC(=O)NC(C)(C)C)nc2n1 + Cn1cc(/C=C2\C(=O)Nc3cccnc32)c2ccccc21 [GW441756] (first compound 0.1 µM, partner dose 0.4 µM)",79.1
12,"CCc1ccc(CCOc2ccc(CC3SC(=O)NC3=O)cc2)nc1 (stereo unspecified) [pioglitazone] + Cn1cc(/C=C2\C(=O)Nc3cccnc32)c2ccccc21 [GW441756] (first compound 2 µM, partner dose 0.4 µM)",85.2
13,"COc1ccc(COc2ccc(Cc3cnc(N)nc3N)cc2OC)cc1 + COc1cc2ncnc(Nc3ccc(Oc4ccccc4)cc3)c2cc1OC [SrcI1] (first compound 1 µM, partner dose 2 µM)",73.8
14,"O=S(=O)(c1ccccc1)N(CC(F)(F)F)c1ccc(C(O)(C(F)(F)F)C(F)(F)F)cc1 + COc1cc2ncnc(Nc3ccc(Oc4ccccc4)cc3)c2cc1OC [SrcI1] (first compound 1.4 µM, partner dose 2 µM)",81
15,"COc1ccc2c(c1)CCC1C2CCC2(C)C(NCCCCCCN3C(=O)C=CC3=O)CCC12 (stereo unspecified) + Cn1cc(/C=C2\C(=O)Nc3cccnc32)c2ccccc21 [GW441756] (first compound 0.4 µM, partner dose 0.4 µM)",47.7
16,"CN(NC(=O)CC(=O)NN(C)C(=S)c1ccccc1)C(=S)c1ccccc1 + Cc1cc([N+](=O)[O-])ccc1NS(=O)(=O)c1cc(Cl)ccc1Cl [FH535] (first compound 0.006 µM, partner dose 1 µM)",406
17,"N#Cc1c(O)c2c(-c3ccc(-c4ccccc4O)cc3)csc2[nH]c1=O + c1cc(-c2cnn3cc(-c4ccc(OCCN5CCCCC5)cc4)cnc23)ccn1 [Dorsomorphin] (first compound 2 µM, partner dose 0.4 µM)",46.8
18,"CCc1ccc(CCOc2ccc(CC3SC(=O)NC3=O)cc2)nc1 (stereo unspecified) [pioglitazone] + COc1ccc(COc2ccc(Cc3cnc(N)nc3N)cc2OC)cc1 [GW2580] (first compound 2 µM, partner dose 1 µM)",45.8

# Reprinted from above for reference:
row,Structure (SMILES),cleaved PARP positive nuclei fraction [%]
12,"CCc1ccc(CCOc2ccc(CC3SC(=O)NC3=O)cc2)nc1 (stereo unspecified) [pioglitazone] + Cn1cc(/C=C2\C(=O)Nc3cccnc32)c2ccccc21 [GW441756] (first compound 2 µM, partner dose 0.4 µM)",85.2
13,"COc1ccc(COc2ccc(Cc3cnc(N)nc3N)cc2OC)cc1 + COc1cc2ncnc(Nc3ccc(Oc4ccccc4)cc3)c2cc1OC [SrcI1] (first compound 1 µM, partner dose 2 µM)",73.8

# Next records

row,Structure (SMILES),cleaved PARP positive nuclei fraction [%]
1,"COc1cc2c(Oc3ccc4[nH]c(C)cc4c3F)ncnc2cc1OCCCN1CCCC1 [cediranib] + CCc1ccc(CCOc2ccc(CC3SC(=O)NC3=O)cc2)nc1 [pioglitazone] (first compound 0.4 µM, partner dose 2 µM)",166
2,"COc1ccc(-c2ccc3c(N4CCOCC4)nc(N4C[C@@H](C)O[C@@H](C)C4)nc3n2)cc1CO + COc1cc2ncnc(Nc3ccc(Oc4ccccc4)cc3)c2cc1OC [SrcI1] (first compound 0.02 µM, partner dose 2 µM)",103
3,"O=C(O)c1ccc(-c2c[nH]c3ncc(-c4ccccc4)cc23)cc1C1CCCC1 + O=S(=O)(c1ccccc1)N(CC(F)(F)F)c1ccc(C(O)(C(F)(F)F)C(F)(F)F)cc1 [T0901317] (first compound 0.16 µM, partner dose 1.4 µM)",94.3
4,"COc1ccc(-c2ccc3c(N4CCOCC4)nc(N4C[C@@H](C)O[C@@H](C)C4)nc3n2)cc1CO + CCN(CC)CCCCNc1ncc2cc(-c3cc(OC)cc(OC)c3)c(NC(=O)NC(C)(C)C)nc2n1 [PD173074] (first compound 0.02 µM, partner dose 0.1 µM)",86.8
5,"Oc1cc(-c2nc(-c3ccccc3)[nH]c2-c2ccncc2)ccc1Cl + O=C1NC(=O)/C(=C/c2ccc(-c3ccc(F)cc3O)o2)S1 [AS252424] (first compound 0.2 µM, partner dose 1 µM)",105
6,"CCc1ccc(CCOc2ccc(CC3SC(=O)NC3=O)cc2)nc1 (stereo unspecified) [pioglitazone] + O=C(Nc1ccccc1)c1cc([N+](=O)[O-])ccc1Cl [GW9662] (first compound 2 µM, partner dose 2 µM)",44
7,"COc1ccc2c(c1)CCC1C2CCC2(C)C(NCCCCCCN3C(=O)C=CC3=O)CCC12 (stereo unspecified) + O=C(O)C(=O)Nc1sc2c(c1C(=O)O)CCNC2 [TCS401] (first compound 0.4 µM, partner dose 1.66667 µM)",275
8,"CN(C)S(=O)(=O)c1ccc2c(c1)/C(=C/c1cc3c([nH]1)CCCC3)C(=O)N2 + COc1cc(N2CCC(N3CCN(C)CC3)CC2)ccc1Nc1ncc(Cl)c(Nc2ccccc2S(=O)(=O)C(C)C)n1 [NVP-TAE684] (first compound 0.4 µM, partner dose 0.08 µM)",43.4
9,"CN(C)S(=O)(=O)c1ccc2c(c1)/C(=C/c1cc3c([nH]1)CCCC3)C(=O)N2 + N#Cc1c(O)c2c(-c3ccc(-c4ccccc4O)cc3)csc2[nH]c1=O [A769662] (first compound 0.4 µM, partner dose 2 µM)",180
10,"COc1ccc2c(c1)CCC1C2CCC2(C)C(NCCCCCCN3C(=O)C=CC3=O)CCC12 (stereo unspecified) + CC(C)CCN1c2nc(Nc3cc(F)c(O)c(F)c3)ncc2N(C)C(=O)C1C [BID1870] (first compound 0.4 µM, partner dose 0.2 µM)",112
11,"CCc1ccc(CCOc2ccc(CC3SC(=O)NC3=O)cc2)nc1 (stereo unspecified) [pioglitazone] + Oc1cc(-c2nc(-c3ccccc3)[nH]c2-c2ccncc2)ccc1Cl [L779450] (first compound 2 µM, partner dose 0.2 µM)",47.8
12,"CCc1ccc(CCOc2ccc(CC3SC(=O)NC3=O)cc2)nc1 (stereo unspecified) [pioglitazone] + CC(C)CCN1c2nc(Nc3cc(F)c(O)c(F)c3)ncc2N(C)C(=O)C1C [BID1870] (first compound 2 µM, partner dose 0.2 µM)",105
13,"CN(NC(=O)CC(=O)NN(C)C(=S)c1ccccc1)C(=S)c1ccccc1 + O=c1cc(-c2cccc3c2Sc2ccccc2S3)oc(N2CCOCC2)c1 [KU55933] (first compound 0.006 µM, partner dose 1 µM)",86.5
14,"O=C(O)c1ccc(-c2c[nH]c3ncc(-c4ccccc4)cc23)cc1C1CCCC1 + Oc1nc(-c2ccc(C(F)(F)F)cc2)nc2c1CSCC2 [XAV939] (first compound 0.16 µM, partner dose 2 µM)",27.1
15,"COc1ccc(COc2ccc(Cc3cnc(N)nc3N)cc2OC)cc1 + COc1cc(N2CCC(N3CCN(C)CC3)CC2)ccc1Nc1ncc(Cl)c(Nc2ccccc2S(=O)(=O)C(C)C)n1 [NVP-TAE684] (first compound 1 µM, partner dose 0.08 µM)",173
16,"COc1ccc2c(c1)CCC1C2CCC2(C)C(NCCCCCCN3C(=O)C=CC3=O)CCC12 (stereo unspecified) + c1cc(-c2cnn3cc(-c4ccc(OCCN5CCCCC5)cc4)cnc23)ccn1 [Dorsomorphin] (first compound 0.4 µM, partner dose 0.4 µM)",324
17,"NCC(=O)Nc1ccc(-n2nc(C(F)(F)F)cc2-c2ccc3c(ccc4ccccc43)c2)cc1 + COc1ccc(COc2ccc(Cc3cnc(N)nc3N)cc2OC)cc1 [GW2580] (first compound 1 µM, partner dose 1 µM)",43.8
18,"COc1cc2ncnc(Nc3ccc(Oc4ccccc4)cc3)c2cc1OC + COc1cc(N2CCC(N3CCN(C)CC3)CC2)ccc1Nc1ncc(Cl)c(Nc2ccccc2S(=O)(=O)C(C)C)n1 [NVP-TAE684] (first compound 2 µM, partner dose 0.08 µM)",95.8
